Data reported in patent US6863211B2, “Omega-hydrofluoroalkyl ethers, precursor carboxylic acids and derivatives thereof, and their preparation and application” (3M Innovative Properties Company, priority 1994, dated 2005).

Assay: Blowing agent for foamed polyurethane
Details: 1.87 pbw as blowing agent in polyurethane foam
Protocol: Omega-hydrofluoralkyl ether compounds of this invention were evaluated as blowing agents for foams using the procedures taught in U.S. Pat. No. 5,210,106 (Dams et al.). Component A contained 15.0 parts by weight of PAPI™27, a methylene diphenyldiisocyanate having an isocyanate equivalent of 134.0, available from Dow Chemical. Component B of the foam contained 10.5 parts by weight (pbw) of Voranol™ 360, a polyether polyol with a hydroxyl number of 360 available from Dow Chemical; 0.26 pbw of water; 0.26 pbw of an oligomeric fluorochemical surfactant as described in Example 1 of U.S. Pat. No. 3,787,351; 0.13 pbw of Polycat™ 8, a N,N-dimethylcyclohexylamine catalyst available from Air Products; and 1.87 pbw of C4F9OCF2CF2H as the blowing agent.
The ingredients of Component B were mixed to obtain an emulsion which was then admixed with Component A and stirred at 2500 rpm for 10 seconds. The cream time of the foam was approximately 10 seconds. Rise time and tack-free time was approximately 2 and 3 minutes respectively.

Compound: FC(F)C(F)(F)OC(F)(F)C(F)(F)C(F)(F)C(F)(F)F [C4F9OC2F4H, C4F9—O—C2F4H]
- Appearance of resulting polyurethane foam: rigid and had a uniform distribution of very fine, closed cells
- Cream time of the foam: approximately 10 seconds
- Rise time of the foam: approximately 2 minutes
- Tack-free time of the foam: ~3 min
